# Source: the supplement of paper PMC8728848
# Some of the results follow.
# B1: HHL-2 (Homo sapiens), P07307 (protein)
# chain: MAKDFQDIQQLSSEENDHPFHQGEGPGTRRLNPRRGNPFLKGPPPAQPLAQRLCSMVCFSLLALSFNILLLVVICVTGSQSEGHRGAQLQAELRSLKEAFSNFSSSTLTEVQAISTHGGSVGDKITSLGAKLEKQQQDLKADHDALLFHLKHFPVDLRFVACQMELLHSNGSQRTCCPVNWVEHQGSCYWFSHSGKAWAEAEKYCQLENAHLVVINSWEEQKFIVQHTNPFNTWIGLTDSDGSWKWVDGTDYRHNYKNWAVTQPDNWHGHELGGSEDCVEVQPDGRWNDDFCLQVYRWVCEKRRNATGEVA
# Legend:
# Test in all cases: glycan array binding signal (z-score within array); higher = stronger binding
# Conditions in all cases: glycan notation: IUPAC condensed, linker removed
# [1] = target: Neu5Ac(a2-3)Gal(b1-4)[Fuc(a1-3)]GlcNAc
# Method in brief: (§1)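 From the Consortium for Functional Glycomics database, 3228 arrays were curated, keeping only those whose protein sequence was available. Binding is given as a within-array Z-score averaged across arrays sharing a protein sequence and across linkers. Negative Z-scores can be read as non-binding.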
# [2] = target: Neu5Ac(a2-3)Gal(b1-4)[Fuc(a1-3)]GlcNAc(b1-3)Gal
# Method in brief: as §1
# [3] = target: Neu5Ac(a2-3)Gal(b1-4)[Fuc(a1-3)]GlcNAc(b1-3)Gal(b1-4)GlcNAc
# Method in brief: as §1
# [4] = target: Neu5Ac(a2-3)Gal(b1-4)[Fuc(a1-3)]GlcNAc(b1-3)Gal(b1-4)[Fuc(a1-3)]GlcNAc(b1-3)Gal(b1-4)[Fuc(a1-3)]GlcNAc
# Method in brief: as §1
# [5] = target: Neu5Ac(a2-3)Gal(b1-4)[Fuc(a1-3)]GlcNAc(b1-6)[Gal(b1-3)]GalNAc
# Method in brief: as §1
# [6] = target: Neu5Ac(a2-3)Gal(b1-4)[Fuc(a1-3)]GlcNAc(b1-6)[Neu5Ac(a2-3)Gal(b1-3)]GalNAc
# Method in brief: as §1
# [7] = target: Neu5Ac(a2-3)Gal(b1-4)[Fuc(a1-3)]GlcNAc6S
# Method in brief: as §1
# [8] = target: Neu5Ac(a2-3)Gal6S(b1-4)GlcNAc
# Method in brief: as §1
# [9] = target: Neu5Ac(a2-3)Gal6S(b1-4)[Fuc(a1-3)]GlcNAc
# Method in brief: as §1
# [10] = target: Neu5Ac(a2-3)GalNAc
# Method in brief: as §1
# [11] = target: Neu5Ac(a2-3)GalNAc(b1-4)GlcNAc
# Method in brief: as §1
# [12] = target: Neu5Ac(a2-3)[GalNAc(b1-4)]Gal(b1-4)Glc
# Method in brief: as §1
# [13] = target: Neu5Ac(a2-3)[GalNAc(b1-4)]Gal(b1-4)GlcNAc
# Method in brief: as §1
# [14] = target: Neu5Ac(a2-3)[Neu5Ac(a2-6)]GalNAc
# Method in brief: as §1
# [15] = target: Neu5Ac(a2-6)Gal
# Method in brief: as §1
# [16] = target: Neu5Ac(a2-6)Gal(b1-4)Glc
# Method in brief: as §1
# [17] = target: Neu5Ac(a2-6)Gal(b1-4)GlcNAc
# Method in brief: as §1
# [18] = target: Neu5Ac(a2-6)Gal(b1-4)GlcNAc(b1-2)Man(a1-3)Man(b1-4)GlcNAc(b1-4)GlcNAc
# Method in brief: as §1
# [19] = target: Neu5Ac(a2-6)Gal(b1-4)GlcNAc(b1-2)Man(a1-3)[Gal(b1-4)GlcNAc(b1-2)Man(a1-6)]Man(b1-4)GlcNAc(b1-4)GlcNAc
# Method in brief: as §1
# [20] = target: Neu5Ac(a2-6)Gal(b1-4)GlcNAc(b1-2)Man(a1-3)[GlcNAc(b1-2)Man(a1-6)]Man(b1-4)GlcNAc(b1-4)GlcNAc
# Method in brief: as §1
# [21] = target: Neu5Ac(a2-6)Gal(b1-4)GlcNAc(b1-2)Man(a1-3)[GlcNAc(b1-2)Man(b1-4)GlcNAc(b1-2)Man(a1-6)]Man(b1-4)GlcNAc(b1-4)GlcNAc
# Method in brief: as §1
# [22] = target: Neu5Ac(a2-6)Gal(b1-4)GlcNAc(b1-2)Man(a1-3)[Man(a1-6)]Man(b1-4)GlcNAc(b1-4)GlcNAc
# Method in brief: as §1
# [23] = target: Neu5Ac(a2-6)Gal(b1-4)GlcNAc(b1-2)Man(a1-3)[Neu5Ac(a2-6)Gal(b1-4)GlcNAc(b1-2)Man(a1-6)]Man(b1-4)GlcNAc(b1-4)GlcNAc
# Method in brief: as §1
# [24] = target: Neu5Ac(a2-6)Gal(b1-4)GlcNAc(b1-2)Man(a1-6)Man(b1-4)GlcNAc(b1-4)GlcNAc
# Method in brief: as §1
# [25] = target: Neu5Ac(a2-6)Gal(b1-4)GlcNAc(b1-2)Man(a1-6)[Gal(b1-4)GlcNAc(b1-2)Man(a1-3)]Man(b1-4)GlcNAc(b1-4)GlcNAc
# Method in brief: as §1
# [26] = target: Neu5Ac(a2-6)Gal(b1-4)GlcNAc(b1-2)Man(a1-6)[GlcNAc(b1-2)Man(a1-3)]Man(b1-4)GlcNAc(b1-4)GlcNAc
# Method in brief: as §1
# [27] = target: Neu5Ac(a2-6)Gal(b1-4)GlcNAc(b1-2)Man(a1-6)[Man(a1-3)]Man(b1-4)GlcNAc(b1-4)GlcNAc
# Method in brief: as §1
# [28] = target: Neu5Ac(a2-6)Gal(b1-4)GlcNAc(b1-3)Gal(b1-3)GlcNAc
# Method in brief: as §1
binder,measurement,setting,value
B1,glycan array binding signal (z-score),[1],-0.312
same,glycan array binding signal (z-score),[2],1.89
same,glycan array binding signal (z-score),[3],0.901
same,glycan array binding signal (z-score),[4],-0.56
same,glycan array binding signal (z-score),[5],-0.925
same,glycan array binding signal (z-score),[6],-0.303
same,glycan array binding signal (z-score),[7],0.012
same,glycan array binding signal (z-score),[8],-0.403
same,glycan array binding signal (z-score),[9],-0.612
same,glycan array binding signal (z-score),[10],-0.823
same,glycan array binding signal (z-score),[11],-0.145
same,glycan array binding signal (z-score),[12],0.461
same,glycan array binding signal (z-score),[13],0.969
same,glycan array binding signal (z-score),[14],-0.847
same,glycan array binding signal (z-score),[15],0.123
same,glycan array binding signal (z-score),[16],-0.271
same,glycan array binding signal (z-score),[17],0.623
same,glycan array binding signal (z-score),[18],0.098
same,glycan array binding signal (z-score),[19],0.34
same,glycan array binding signal (z-score),[20],-0.424
same,glycan array binding signal (z-score),[21],0.261
same,glycan array binding signal (z-score),[22],0.323
same,glycan array binding signal (z-score),[23],2.4
same,glycan array binding signal (z-score),[24],-0.311
same,glycan array binding signal (z-score),[25],-0.429
same,glycan array binding signal (z-score),[26],-0.868
same,glycan array binding signal (z-score),[27],-0.826
same,glycan array binding signal (z-score),[28],-0.096

# Six neighbouring records from above:
binder,measurement,setting,value
B1,glycan array binding signal (z-score),[17],0.623
same,glycan array binding signal (z-score),[18],0.098
same,glycan array binding signal (z-score),[19],0.34
same,glycan array binding signal (z-score),[20],-0.424
same,glycan array binding signal (z-score),[21],0.261
same,glycan array binding signal (z-score),[22],0.323
